# Some of these results come from one statement about several compounds together.
# Sequences of proteins named here, by UniProt entry; tags and fusion partners are left off. A change or cut given only in a name is not applied to a line headed by its entry.
# UniProt Q5S007: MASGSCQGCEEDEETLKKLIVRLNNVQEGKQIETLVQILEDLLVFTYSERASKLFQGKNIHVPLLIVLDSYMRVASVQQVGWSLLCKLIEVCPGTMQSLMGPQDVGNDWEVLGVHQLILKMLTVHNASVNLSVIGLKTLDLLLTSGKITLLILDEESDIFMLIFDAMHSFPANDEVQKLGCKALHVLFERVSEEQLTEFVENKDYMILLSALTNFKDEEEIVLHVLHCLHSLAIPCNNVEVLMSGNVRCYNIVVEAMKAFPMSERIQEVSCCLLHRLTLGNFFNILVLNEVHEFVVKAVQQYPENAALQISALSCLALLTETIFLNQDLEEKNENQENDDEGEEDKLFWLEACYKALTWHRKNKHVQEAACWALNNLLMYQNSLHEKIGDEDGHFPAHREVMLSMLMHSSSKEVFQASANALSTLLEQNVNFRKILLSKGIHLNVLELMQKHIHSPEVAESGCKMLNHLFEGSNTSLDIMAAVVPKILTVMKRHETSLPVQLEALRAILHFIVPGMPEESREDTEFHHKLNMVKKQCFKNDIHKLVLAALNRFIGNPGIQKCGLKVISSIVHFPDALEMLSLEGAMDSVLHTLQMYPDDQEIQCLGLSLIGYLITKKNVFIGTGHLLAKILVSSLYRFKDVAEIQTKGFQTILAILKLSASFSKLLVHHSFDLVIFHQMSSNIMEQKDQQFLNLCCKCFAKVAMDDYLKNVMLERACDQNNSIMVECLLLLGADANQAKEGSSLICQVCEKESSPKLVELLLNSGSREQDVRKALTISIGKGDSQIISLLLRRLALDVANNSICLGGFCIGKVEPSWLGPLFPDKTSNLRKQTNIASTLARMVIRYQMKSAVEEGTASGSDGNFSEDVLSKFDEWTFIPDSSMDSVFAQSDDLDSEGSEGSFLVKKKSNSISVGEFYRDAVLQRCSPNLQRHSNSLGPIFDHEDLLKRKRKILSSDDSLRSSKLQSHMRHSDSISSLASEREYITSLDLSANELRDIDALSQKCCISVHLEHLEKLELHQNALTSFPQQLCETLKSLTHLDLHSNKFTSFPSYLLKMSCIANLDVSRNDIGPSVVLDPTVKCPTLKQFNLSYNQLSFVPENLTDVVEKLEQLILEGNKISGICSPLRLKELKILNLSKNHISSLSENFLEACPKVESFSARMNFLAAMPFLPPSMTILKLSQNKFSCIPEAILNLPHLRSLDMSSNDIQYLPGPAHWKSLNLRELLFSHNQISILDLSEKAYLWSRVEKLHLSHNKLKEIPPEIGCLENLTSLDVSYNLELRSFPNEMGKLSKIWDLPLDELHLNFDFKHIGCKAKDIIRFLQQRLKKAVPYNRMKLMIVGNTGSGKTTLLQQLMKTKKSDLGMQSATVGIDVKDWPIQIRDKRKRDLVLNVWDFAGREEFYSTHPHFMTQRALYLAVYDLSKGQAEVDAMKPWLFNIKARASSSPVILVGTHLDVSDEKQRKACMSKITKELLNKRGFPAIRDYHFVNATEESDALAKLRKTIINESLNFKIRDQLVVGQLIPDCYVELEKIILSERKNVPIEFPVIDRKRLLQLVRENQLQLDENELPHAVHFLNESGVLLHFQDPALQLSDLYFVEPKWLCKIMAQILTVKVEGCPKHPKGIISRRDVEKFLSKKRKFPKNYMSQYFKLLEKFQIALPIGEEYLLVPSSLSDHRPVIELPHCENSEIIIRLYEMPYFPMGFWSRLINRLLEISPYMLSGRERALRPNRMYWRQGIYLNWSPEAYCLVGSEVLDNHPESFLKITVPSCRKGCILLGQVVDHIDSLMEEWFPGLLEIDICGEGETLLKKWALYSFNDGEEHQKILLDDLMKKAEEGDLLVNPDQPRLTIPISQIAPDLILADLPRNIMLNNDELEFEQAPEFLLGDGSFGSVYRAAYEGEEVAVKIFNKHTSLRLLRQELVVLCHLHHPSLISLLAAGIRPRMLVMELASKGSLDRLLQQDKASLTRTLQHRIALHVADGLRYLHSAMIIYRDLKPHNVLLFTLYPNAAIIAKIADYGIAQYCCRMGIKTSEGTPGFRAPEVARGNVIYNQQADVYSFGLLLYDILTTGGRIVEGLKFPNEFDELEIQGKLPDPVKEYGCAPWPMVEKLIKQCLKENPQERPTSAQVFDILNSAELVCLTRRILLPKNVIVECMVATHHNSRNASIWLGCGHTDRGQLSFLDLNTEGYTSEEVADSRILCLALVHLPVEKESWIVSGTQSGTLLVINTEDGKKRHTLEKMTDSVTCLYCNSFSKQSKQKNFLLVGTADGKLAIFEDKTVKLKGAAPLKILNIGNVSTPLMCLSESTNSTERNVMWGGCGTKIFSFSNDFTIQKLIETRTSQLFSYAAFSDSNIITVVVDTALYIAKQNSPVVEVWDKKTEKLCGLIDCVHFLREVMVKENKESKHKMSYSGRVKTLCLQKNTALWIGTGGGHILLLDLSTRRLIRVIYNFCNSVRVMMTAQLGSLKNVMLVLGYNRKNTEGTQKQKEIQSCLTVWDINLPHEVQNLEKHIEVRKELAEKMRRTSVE
# Target: T1, LRRK2 (Wt) and LRRK2 (G2019) (Homo sapiens, UniProt Q5S007)
# T1 construct: fused on or other part: GST tag, inferred from the Eu-Anti-GST antibody used for detection
# Assay: TR-FRET LanthaScreen Eu Kinase Binding Assay, LRRK2
# Conditions: wt human LRRK2 or G2019S human LRRK2, catalytic site; one bin printed for both; read-out: IC50, inhibitory activity toward LRRK2 (Wt) and LRRK2 (G2019)
row,IC50,SMILES
1,< 10 nM,"Cc1ccc2c(c1)-c1n[nH]cc1NC(c1c(F)ccc(C)c1F)=N2 [Compound 178, 5-(2,6-difluoro-3-methylphenyl)-9-methyl-2,4-dihydrobenzo[d]pyrazolo[3,4-f][1,3]diazepine]"
2,< 10 nM,"Cc1cc(F)c(C2=Nc3ccc(C)cc3-c3n[nH]cc3N2)c(F)c1 [Compound 179, 5-(2,6-difluoro-4-methylphenyl)-9-methyl-2,4-dihydrobenzo[d]pyrazolo[3,4-f][1,3]diazepine]"
3,< 10 nM,"Fc1cccc(Cl)c1C1=Nc2cnc(Cl)cc2-c2n[nH]cc2N1 [Compound 190, 9-chloro-5-(2-chloro-6-fluorophenyl)-2,4-dihydropyrazolo[4,3-d]pyrido[4,3-f][1,3]diazepine]"
4,< 10 nM,"Fc1cccc(F)c1C1=Nc2cnc(OC(F)F)cc2-c2n[nH]cc2N1 [Compound 197, 9-(difluoromethoxy)-5-(2,6-difluorophenyl)-2,4-dihydropyrazolo[4,3-d]pyrido[4,3-f][1,3]diazepine]"
5,< 10 nM,"CCNC(=O)c1cc2c(cc1Cl)-c1n[nH]cc1N=C(c1c(F)cccc1F)N2 [Compound 200, 9-chloro-5-(2,6-difluorophenyl)-N-ethyl-2,6-dihydrobenzo[d]pyrazolo[3,4-f][1,3]diazepine-8-carboxamide]"
6,< 10 nM,"O=C(NCC(F)(F)F)c1cc2c(cc1Cl)-c1n[nH]cc1N=C(c1c(F)cccc1F)N2 [Compound 202, 9-chloro-5-(2,6-difluorophenyl)-N-(2,2,2-trifluoroethyl)-2,6-dihydrobenzo[d]pyrazolo[3,4-f][1,3]diazepine-8-carboxamide]"
7,< 10 nM,"FCCc1ccc2c(c1)-c1n[nH]cc1NC(c1c(F)cccc1F)=N2 [Compound 204, 5-(2,6-difluorophenyl)-9-(2-fluoroethyl)-2,4-dihydrobenzo[d]pyrazolo[3,4-f][1,3]diazepine]"
8,< 10 nM,"Cc1ccc2c(c1)-c1n[nH]cc1NC(c1c(F)cc(C(F)(F)F)cc1F)=N2 [Compound 205, 5-(2,6-difluoro-4-(trifluoromethyl)phenyl)-9-methyl-2,4-dihydrobenzo[d]pyrazolo[3,4-f][1,3]diazepine]"
9,< 10 nM,"Cc1ccc2c(c1)-c1n[nH]cc1NC(c1c(F)cccc1C(F)(F)F)=N2 [Compound 206, 5-(2-fluoro-6-(trifluoromethyl)phenyl)-9-methyl-2,4-dihydrobenzo[d]pyrazolo[3,4-f][1,3]diazepine]"
10,< 10 nM,"O=C(Nc1ccc2c(c1)-c1n[nH]cc1NC(c1c(F)cccc1F)=N2)OCc1ccccc1 [Compound 207, benzyl(5-(2,6-difluorophenyl)-2,4-dihydrobenzo[d]pyrazolo[3,4-f][1,3]diazepin-9-yl)carbamate]"
11,< 10 nM,"Fc1cccc(F)c1C1=Nc2ccc(CCCl)cc2-c2n[nH]cc2N1 [Compound 209, 9-(2-chloroethyl)-5-(2,6-difluorophenyl)-2,4-dihydrobenzo[d]pyrazolo[3,4-f][1,3]diazepine]"
12,< 10 nM,"CCNC(=O)c1cc2c(cc1F)-c1n[nH]cc1N=C(c1c(F)cccc1F)N2 [Compound 211, 5-(2,6-difluorophenyl)-N-ethyl-9-fluoro-2,6-dihydrobenzo[d]pyrazolo[3,4-f][1,3]diazepine-8-carboxamide]"
13,< 10 nM,"Cc1ccc2c(c1)-c1n[nH]c(C)c1NC(c1c(F)cccc1F)=N2 [Compound 212, 5-(2,6-difluorophenyl)-3,9-dimethyl-2,4-dihydrobenzo[d]pyrazolo[3,4-f][1,3]diazepine]"
14,< 10 nM,"Fc1ccc2c(c1)-c1[nH]ncc1N=C(c1c(F)cc(OC(F)F)cc1F)N2 [Compound 215, 5-(4-(difluoromethoxy)-2,6-difluorophenyl)-9-fluoro-1,6-dihydrobenzo[d]pyrazolo[3,4-f][1,3]diazepine]"
15,< 10 nM,"O=C(NCCF)c1cc2c(cc1F)-c1n[nH]cc1N=C(c1c(F)cccc1F)N2 [Compound 216, 5-(2,6-difluorophenyl)-9-fluoro-N-(2-fluoroethyl)-2,6-dihydrobenzo[d]pyrazolo[3,4-f][1,3]diazepine-8-carboxamide]"
16,< 10 nM,"Cc1ccc2c(c1)-c1n[nH]cc1NC(c1c(F)ccc(C(F)(F)F)c1F)=N2 [Compound 217, 5-(2,6-difluoro-3-(trifluoromethyl)phenyl)-9-methyl-2,4-dihydrobenzo[d]pyrazolo[3,4-f][1,3]diazepine]"

# Continued, compound first:
row,SMILES,IC50
1,"CCc1cc(F)c2c(c1)-c1[nH]ncc1NC(c1c(F)cccc1F)=N2 [Compound 167, 5-(2,6-difluorophenyl)-9-ethyl-7-fluoro-1,4-dihydrobenzo[d]pyrazolo[3,4-f][1,3]diazepine]",< 10 nM
2,"CCc1cc(F)c2c(c1)-c1[nH]nc(Cl)c1NC(c1c(F)cccc1F)=N2 [Compound 168, 3-chloro-5-(2,6-difluorophenyl)-9-ethyl-7-fluoro-1,4-dihydrobenzo[d]pyrazolo[3,4-f][1,3]diazepine]",< 10 nM
3,"COc1ccc2c(c1F)N=C(c1c(F)cccc1F)Nc1cn[nH]c1-2 [Compound 169, 5-(2,6-difluorophenyl)-7-fluoro-8-methoxy-1,4-dihydrobenzo[d]pyrazolo[3,4-f][1,3]diazepine]",< 10 nM
4,"Fc1cccc(F)c1C1=Nc2c(Cl)n[nH]c2-c2cc(Cl)ncc2N1 [Compound 171, 3,9-dichloro-5-(2,6-difluorophenyl)-1,6-dihydropyrazolo[4,3-d]pyrido[4,3-f][1,3]diazepine]",< 10 nM
5,"Cc1ccc2c(c1)-c1[nH]ncc1N=C(c1c(C)cccc1F)N2 [Compound 172, 5-(2-fluoro-6-methylphenyl)-9-methyl-1,6-dihydrobenzo[d]pyrazolo[3,4-f][1,3]diazepine]",< 10 nM
6,"COc1cc(F)c(C2=Nc3cn[nH]c3-c3cc(C)ccc3N2)c(F)c1 [Compound 173, 5-(2,6-difluoro-4-methoxyphenyl)-9-methyl-1,6-dihydrobenzo[d]pyrazolo[3,4-f][1,3]diazepine]",< 10 nM
7,"Cc1ccc2c(c1)-c1[nH]ncc1N=C(c1c(F)cc(F)cc1F)N2 [Compound 175, 9-methyl-5-(2,4,6-trifluorophenyl)-1,6-dihydrobenzo[d]pyrazolo[3,4-f][1,3]diazepine]",< 10 nM
8,"Cc1ccc2c(c1)-c1[nH]ncc1N=C(c1c(F)cc(Br)cc1F)N2 [Compound 176, 5-(4-bromo-2,6-difluorophenyl)-9-methyl-1,6-dihydrobenzo[d]pyrazolo[3,4-f][1,3]diazepine]",< 10 nM
9,"Cc1ccc2c(c1)-c1[nH]ncc1NC(c1c(F)ccc(F)c1F)=N2 [Compound 182, 9-methyl-5-(2,3,6-trifluorophenyl)-1,4-dihydrobenzo[d]pyrazolo [3,4-f][1,3]diazepine]",< 10 nM
10,"Cc1ccc2c(c1)-c1[nH]ncc1NC(c1c(F)ccc(Br)c1Cl)=N2 [Compound 183, 5-(3-bromo-2-chloro-6-fluorophenyl)-9-methyl-1,4-dihydrobenzo [d]pyrazolo[3,4-f][1,3]diazepine]",< 10 nM
11,"Cc1ccc2c(c1)-c1[nH]ncc1NC(c1c(Cl)ccc(Br)c1F)=N2 [Compound 184, 5-(3-bromo-6-chloro-2-fluorophenyl)-9-methyl-1,4-dihydrobenzo [d]pyrazolo[3,4-f][1,3]diazepine]",< 10 nM
12,"Cc1ccc2c(c1)-c1[nH]ncc1NC(c1c(Cl)ccc(F)c1F)=N2 [Compound 186, 5-(6-chloro-2,3-difluorophenyl)-9-methyl-1,4-dihydrobenzo[d]pyrazolo[3,4-f][1,3]diazepine]",< 10 nM
13,"Fc1cccc(Cl)c1C1=Nc2cn[nH]c2-c2cc(N3CCOCC3)ccc2N1 [Compound 187, 4-(5-(2-chloro-6-fluorophenyl)-1,6-dihydrobenzo[d]pyrazolo[3,4-f][1,3]diazepin-9-yl)morpholine]",< 10 nM
14,"Fc1cccc(Cl)c1C1=Nc2cnc(C(F)(F)F)cc2-c2[nH]ncc2N1 [Compound 188, 5-(2-chloro-6-fluorophenyl)-9-(trifluoromethyl)-1,4-dihydropyrazolo[4,3-d]pyrido[4,3-f][1,3]diazepine]",< 10 nM
15,"Fc1cccc(F)c1C1=Nc2cn[nH]c2-c2cc(N3CCC(F)(F)CC3)ccc2N1 [Compound 191, 5-(2,6-difluorophenyl)-9-(4,4-difluoropiperidin-1-yl)-1,6-dihydrobenzo[d]pyrazolo[3,4-f][1,3]diazepine]",< 10 nM
16,"Fc1cccc(Cl)c1C1=Nc2cn[nH]c2-c2cc(N3CCC(F)(F)CC3)ccc2N1 [Compound 192, 5-(2-chloro-6-fluorophenyl)-9-(4,4-difluoropiperidin-1-yl)-1,6-dihydrobenzo[d]pyrazolo[3,4-f][1,3]diazepine]",< 10 nM
17,"Fc1cc(F)c(C2=Nc3ccc(Cl)cc3-c3n[nH]cc3N2)c(F)c1 [Compound 194, 9-chloro-5-(2,4,6-trifluorophenyl)-2,4-dihydrobenzo[d]pyrazolo[3,4-f][1,3]diazepine]",< 10 nM
18,"Fc1cccc(F)c1C1=Nc2cn[nH]c2-c2cc(N3CC(F)(F)C3)ccc2N1 [Compound 195, 9-(3,3-difluoroazetidin-1-yl)-5-(2,6-difluorophenyl)-1,6-dihydrobenzo[d]pyrazolo[3,4-f][1,3]diazepine]",< 10 nM
19,"Fc1cccc(Cl)c1C1=Nc2cn[nH]c2-c2cc(N3CC(F)(F)C3)ccc2N1 [Compound 196, 5-(2-chloro-6-fluorophenyl)-9-(3,3-difluoroazetidin-1-yl)-1,6-dihydrobenzo[d]pyrazolo[3,4-f][1,3]diazepine]",< 10 nM
20,"O=C(O)c1cc2c(cc1Cl)-c1[nH]ncc1N=C(c1c(F)cccc1F)N2 [Compound 198, 9-chloro-5-(2,6-difluorophenyl)-1,6-dihydrobenzo[d]pyrazolo[3,4-f][1,3]diazepine-8-carboxylic acid]",< 10 nM
21,"CC(C)(C)NC(=O)c1cc2c(cc1Cl)-c1n[nH]cc1N=C(c1c(F)cccc1F)N2 [Compound 201, N-(tert-butyl)-9-chloro-5-(2,6-difluorophenyl)-2,6-dihydrobenzo[d]pyrazolo[3,4-f][1,3]diazepine-8-carboxamide]",< 10 nM
22,"Fc1cccc(F)c1C1=Nc2cn[nH]c2-c2cc3c(cc2N1)OCO3 [Compound 210, 5-(2,6-difluorophenyl)-1,6-dihydro-[1,3]dioxolo[4′,5′:4,5]benzo[1,2-d]pyrazolo[3,4-f][1,3]diazepine]",< 10 nM
